# From PubChem BioAssay AID2685 (National Center for Advancing Translational Sciences (NCATS), 2010)
# Screen size: about 320,000 compounds; about 2,100 (0.66%) were called active. Inconclusive results, whose numbers are uncertain, are shown with a selection of clear calls. The call rests on the fitted dose curve; in most records, active means well fitted inhibition curve with a large enough effect in the signal ratio, with a control signal flat (not every such curve was filed as active); inconclusive means small, poorly fitted or top-dose-only effect, or effect the other way, or a change in a side signal; inactive means flat fitted curve, though single readings scatter; the % refers to the signal ratio. Potencies of inconclusive entries are doubtful fits and often do not repeat.
# Assay: qHTS Assay for Lipid Storage Modulators in Drosophila S3 Cells
# Conditions: BODIPY lipid droplet fluorescence, 18-24 h, cells fed with added oleic acid; lipid storage change, negative = inhibition: at 46.1 µM (top of the series) unless noted
# In short: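 Drosophila S3 cells got compounds at several concentrations plus oleic acid (400 uM solution). Laser-scanning cytometry with 488 nm excitation read lipid droplets at 500-530 nm and cells at 575-640 nm. Percent activity was relative to 20 uM Triacsin C.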
# On the % scale 0 is the no-effect control and ±100 the full control effect; potency means the concentration at half of the fitted maximal effect.
Structure (SMILES),"lipid storage change, negative = inhibition",Potency
O=C1NCC(=O)N(Cc2ccccc2)/C1=C/c1ccccc1,inconclusive: 1.98%,
Cn1c(/C(C#N)=C/c2cccc(O)c2)nc2ccccc21,inconclusive: -20.2%,
COc1ccc(CNC(=O)C2CCN(S(=O)(=O)c3cccc(C(F)(F)F)c3)CC2)cc1,inconclusive,
S=C(Nc1ccc(-c2nc3ccccc3[nH]2)cc1)Nc1cccnc1,inconclusive: 41.1%,
COC(=O)N/N=C/c1cn(CCCOc2ccccc2)c2ccccc12,,"inconclusive: 259 nM [activator, full curve, poor fit]"
C=CCC1CCCCC12NC(=O)NC2=O (centres undefined),inconclusive: -95.5%,
O=C(c1ccccc1Cl)N1CCN(S(=O)(=O)c2cccs2)CC1,inconclusive: 31.1%,
O=C(CCC(=O)Nc1ccc(Br)cc1)N/N=C/c1cc([N+](=O)[O-])ccc1O,inconclusive: -5.53%,
CCOC(=O)N1CCN(CC(O)COCc2ccc(OC)c(OC)c2)CC1 (centres undefined),inconclusive: -2.9%,
FC(F)(F)c1cc(-c2ccco2)nc(-n2cnc3ccccc32)n1,inconclusive: 28.8%,
COc1ccc(CCNC(=O)[C@@H]2C[C@H]2c2ccccc2)cc1OC,inconclusive: -27.6%,
COCCNC(=O)c1ccc(C)cc1C,inconclusive: -5.03%,
COc1cc(S(=O)(=O)N2CCOCC2)ccc1F,,"inconclusive: 1460 nM [falling, partial curve, poor fit]"
O=C(NCc1ccco1)c1cnn2c1NC(c1ccc(Br)cc1)CC2C(F)(F)F (centres undefined),,"inconclusive: 1640 nM [activator, partial curve, poor fit]"
Cc1ccc(C(=O)N(CCN2CCCCC2)CC2CCCN(C3CCCC3)C2)s1 (centres undefined),,"inconclusive: 6510 nM [falling, single point]"
Cc1c(CN(C)C(=O)CSc2nc(-c3ccco3)cc(C(F)(F)F)n2)cnn1C,inconclusive: 81.4%,
CC(=O)Nc1ccc(S(=O)(=O)N2CCN(c3cnn(C)c(=O)c3Cl)CC2)cc1,,"inconclusive: 5170 nM [falling, single point]"
O=C(NCCCn1ccnc1)c1ccc(F)cc1,inconclusive: -31.5%,
CC1(C)Cc2nc(N)c(=O)sc2C1,inconclusive: 52.1%,
CNc1ccccc(C(=O)/C=C/c2ccccc2OC)c1=O,inconclusive: 5.55%,
Cc1nc2cc(NC(=O)Nc3ccccc3Cl)ccc2n1C,,"inconclusive: 29100 nM [falling, single point]"
CCN(CC)CCN1C(=O)C2C(C(=O)Nc3cccc(C)c3)C3C=CC2(O3)C1C(=O)NC1CCCC(C)C1C (centres undefined),,"inconclusive: 580 nM [falling, single point]"
CN(CCCCCCCCCCN(C)C(=O)Oc1cccc([N+](C)(C)C)c1)C(=O)Oc1cccc([N+](C)(C)C)c1,inconclusive: -2.3%,
CC1=C(C(=O)OC(C)C)C(c2cccc([N+](=O)[O-])c2)n2c(cc(=O)[nH]c2=S)N1 (centres undefined),inconclusive: 8.97%,
CSCCC(NC(=O)c1ccco1)C(=O)NCC1CCCCC1 (centres undefined),,"inconclusive: 731 nM [activator, partial curve, poor fit]"

# 3 entries from above, set out differently:
Structure (SMILES) | lipid storage change, negative = inhibition | Potency
O=C(c1ccccc1Cl)N1CCN(S(=O)(=O)c2cccs2)CC1 | inconclusive: 31.1% | 
O=C(CCC(=O)Nc1ccc(Br)cc1)N/N=C/c1cc([N+](=O)[O-])ccc1O | inconclusive: -5.53% | 
CC(=O)Nc1ccc(S(=O)(=O)N2CCN(c3cnn(C)c(=O)c3Cl)CC2)cc1 |  | inconclusive: 5170 nM [falling, single point]

# The list goes on:

Structure (SMILES),"lipid storage change, negative = inhibition",Potency
Oc1ccc[n+](CCCCC[n+]2cccc(O)c2)c1,inactive,
O=Cc1ccc(-c2ccccc2C(=O)O)o1,inconclusive: 33.4%,
C=CCn1c(=NC(=O)c2cc(-c3cccs3)nc3ccccc23)sc2cc(S(N)(=O)=O)ccc21,,"inconclusive: 3660 nM [activator, partial curve, poor fit]"
NC(=O)c1ccc(NC(=O)c2cncn2-c2ccccc2)cc1,,"inconclusive: 820 nM [activator, full curve, poor fit]"
COc1ccc(N2CCN(c3cc(C)c4cccc(C)c4n3)CC2)cc1,,"inconclusive: 29100 nM [cytotoxic, single point]"
Cc1ccc(S(=O)(=O)N2CCCC2)cc1C(=O)NCCN1CCOCC1,inconclusive: 36.3%,
CC(=O)c1ccc(N(CC(=O)NCC2CCCO2)C(=O)CCC(=O)Nc2cc(C)on2)cc1 (centres undefined),inconclusive: -27.3%,
CC(NC(=O)c1ccccc1SCC(=O)N1CCCC1)c1ccc(F)cc1 (centres undefined),inconclusive: -100%,
O=C(Cn1cc2c(n1)CCCC2)NC1CCN(Cc2ccccc2)CC1,inconclusive: -35.4%,
OCCN1CCN(c2ncnc3c2sc2nc(N4CCOCC4)c4c(c23)CCC4)CC1,inconclusive: 15.4%,
CCC(=O)Nc1nnc(S(=O)(=O)N(C)c2cc(C)cc(C)c2)s1,inconclusive: -65.5%,
Cc1ccc(S(=O)(=O)NNC(=O)NC23CC4CC(CC(C4)C2)C3)cc1,,"inconclusive: 1300 nM [falling, full curve, poor fit]"
O=S(=O)(Nc1nc2ccccc2nc1NCC1CCCO1)c1cc(Cl)ccc1Cl (centres undefined),inconclusive: 20%,
COc1cc(C2C(C(=O)c3ccc(C)o3)=C(O)C(=O)N2c2cc(C)on2)ccc1O (centres undefined),inconclusive: 2.46%,
OCC1(Cc2ccccc2C(F)(F)F)CCN(Cc2ccc3c(c2)CCO3)CC1,inconclusive: 18.2%,
CCc1ccc(OCc2nnc(SCC(=O)Nc3cccc(C(=O)N4CCOCC4)c3)o2)cc1,inconclusive: -2.92%,
Cc1nonc1OCCNCc1c(C(=O)N2CCCCCCC2)nc2ccc(Cl)cn12,,"inconclusive: 25900 nM [falling, single point]"
O=C(Nc1ccc(Cl)c(Cl)c1)N1CC=CCC1,inconclusive: -6.36%,
COc1c(C)cccc1C(=O)Nc1ccc(N2CCN(S(C)(=O)=O)CC2)cc1,inconclusive: 16.9%,
O=C(C1=COCCO1)N1CCN(C(c2ccccc2)c2ccccc2)CC1,inconclusive: 29%,
CC1CC(C)CN(C(=O)CSc2nc(N)cc(=O)[nH]2)C1 (centres undefined),inconclusive: -34.6%,
CN(CC(=O)Nc1ccc(F)cc1)C(=O)CNC(=O)C1CCCCC1,inconclusive: 7.01%,
O=C(/C=C/c1ccc(Br)cc1)NCc1cccs1,,"inconclusive: 29100 nM [falling, partial curve, poor fit]"
Cc1ccc(COC(=O)Cc2coc3cc(O)ccc23)cc1,,"inconclusive: 1300 nM [activator, partial curve]"
